Measurements taken from the supplement of paper PMC3682954.
Counter-ions that a name gives are not always drawn. ± gives the standard deviation of the averaged measurements. The list shows a part of the results. Many values rest on one well or one pass, so single values are uncertain.

Tested on: RAW 264.7
Assay: HMGB1-induced TNF-alpha production relative to HMGB1-stimulated control; higher = more TNF-alpha secretion (less inhibition)
Settings: stimulus: HMGB1 5 ug/ml, 18 h
[1] = compound concentration: 1 ug/ml

| Compound | HMGB1-induced TNF-alpha production (compound concentration: 3 uM) [%] | HMGB1-induced TNF-alpha production [1] [%] |
| --- | --- | --- |
| CC(C)CN(C[C@@H](O)[C@H](Cc1ccccc1)NC(=O)O[C@H]1CCOC1)S(=O)(=O)c1ccc(N)cc1 [Amprenavir] | 109 |  |
| CCC1=C[C@@H]2CN(C1)Cc1c([nH]c3ccccc13)[C@@](C(=O)OC)(c1cc3c(cc1OC)N(C)[C@H]1[C@@](O)(C(=O)OC)[C@H](OC(C)=O)[C@]4(CC)C=CCN5CC[C@]31[C@@H]54)C2 [Vinorelbine] | 95.4 |  |
| CCN(CC)CCn1c(=O)c(Cc2ccc(OC)cc2)nc2ccccc21 [Caroverine hydrochloride] | 97.7 |  |
| Cc1cccc(CCN2CCC(C(=O)c3ccc(NS(C)(=O)=O)cc3)CC2)n1 | 95.2 |  |
| CO[C@H]1C[C@@H]2CC[C@@H](C)[C@@](O)(O2)C(=O)C(=O)N2CCCC[C@H]2C(=O)O[C@H]([C@H](C)C[C@@H]2CC[C@@H](O)[C@H](OC)C2)CC(=O)[C@H](C)/C=C(\C)[C@@H](O)[C@@H](OC)C(=O)[C@H](C)C[C@H](C)/C=C/C=C/C=C/1C | 103 ± 12 |  |
| CO[C@H]1C[C@@H]2CC[C@@H](C)[C@@](O)(O2)C(=O)C(=O)N2CCCC[C@H]2C(=O)O[C@H]([C@H](C)C[C@@H]2CC[C@@H](O)[C@H](OC)C2)CC(=O)[C@H](C)/C=C(\C)[C@@H](O)[C@@H](OC)C(=O)[C@H](C)C[C@H](C)/C=C/C=C/C=C/1C [Rapamycin] | 84.3 |  |
| CS(=O)(=O)c1ccc([C@H](O)[C@@H](COC(=O)CN)NC(=O)C(Cl)Cl)cc1 [Thiamphenicol glycinate] | 88.2 |  |
| NS(=O)(=O)c1ccc(C(=O)O)cc1 | 93.6 |  |
| CNc1cc(NS(=O)(=O)c2ccc(N)cc2)nc(NC)n1 [Ro 04-6790 dihydrochloride] | 111 |  |
| CCN(CC)CCCC(C)Nc1c2ccc(Cl)cc2nc2ccc(OC)cc12 (stereo not given) [Quinacrine] | 77.1 |  |
| CCN(CC)CCCC(C)Nc1c2ccc(Cl)cc2nc2ccc(OC)cc12 (stereo not given) [Quinacrine dihydrochloride] | 88.8 |  |
| CCN(CC)CCCC(C)Nc1c2ccc(Cl)cc2nc2ccc(OC)cc12 (stereo not given) | 54.7 ± 19 |  |
| CCN(CC)CCCC(C)Nc1c2ccc(Cl)cc2nc2ccc(OC)cc12 (stereo not given) [Quinacrine dihydrochloride dihydrate] | 61.9 |  |
| Cc1nc(C)c(Cl)c(O)c1Cl | 112 |  |
| Cc1nc(C)c(Cl)c(O)c1Cl [Clopidol] | 105 |  |
| CCCCCCCCCCCCCCCC[N+](C)(C)CCN(Cc1ccc(OC)cc1)c1ncccn1 [Thonzonium bromide] | 67.7 |  |
| Nc1ncnc2c1ncn2[C@@H]1O[C@H](CO)[C@@H](OP(=O)(O)O)[C@H]1O [3'-Adenylic acid] |  | 81 |
| O=C(O)P(=O)(O)O | 99.4 |  |
| C#C[C@]1(O)CC[C@H]2[C@@H]3CCc4cc(OC)ccc4[C@H]3CC[C@@]21C [Ethynylestradiol 3-methyl ether] | 111 |  |
| C#C[C@]1(O)CC[C@H]2[C@@H]3CCc4cc(OC)ccc4[C@H]3CC[C@@]21C | 101 ± 20 |  |
| CC(C)NCC(O)c1ccc(NS(C)(=O)=O)cc1 (stereo not given) [Sotalol hydrochloride] | 98.2 |  |
| CC(C)NCC(O)c1ccc(NS(C)(=O)=O)cc1 (stereo not given) [Sotalol] | 95.7 |  |
| CC1=C(C)C(=O)C(CCCCC#CCCCC#CCO)=C(C)C1=O | 90.4 |  |
| CC1=C(C)C(=O)C(CCCCC#CCCCC#CCO)=C(C)C1=O [Docebenone] | 102 |  |
| COc1cc(C=O)ccc1O [Vanillin] |  | 81.1 |

Copied from the listing (11 entries):

| Compound | HMGB1-induced TNF-alpha production (compound concentration: 3 uM) [%] | HMGB1-induced TNF-alpha production [1] [%] |
| --- | --- | --- |
| CS(=O)(=O)c1ccc([C@H](O)[C@@H](COC(=O)CN)NC(=O)C(Cl)Cl)cc1 [Thiamphenicol glycinate] | 88.2 |  |
| NS(=O)(=O)c1ccc(C(=O)O)cc1 | 93.6 |  |
| CNc1cc(NS(=O)(=O)c2ccc(N)cc2)nc(NC)n1 [Ro 04-6790 dihydrochloride] | 111 |  |
| CCN(CC)CCCC(C)Nc1c2ccc(Cl)cc2nc2ccc(OC)cc12 (stereo not given) [Quinacrine] | 77.1 |  |
| CCN(CC)CCCC(C)Nc1c2ccc(Cl)cc2nc2ccc(OC)cc12 (stereo not given) [Quinacrine dihydrochloride] | 88.8 |  |
| CCN(CC)CCCC(C)Nc1c2ccc(Cl)cc2nc2ccc(OC)cc12 (stereo not given) | 54.7 ± 19 |  |
| CCN(CC)CCCC(C)Nc1c2ccc(Cl)cc2nc2ccc(OC)cc12 (stereo not given) [Quinacrine dihydrochloride dihydrate] | 61.9 |  |
| Cc1nc(C)c(Cl)c(O)c1Cl | 112 |  |
| Cc1nc(C)c(Cl)c(O)c1Cl [Clopidol] | 105 |  |
| CCCCCCCCCCCCCCCC[N+](C)(C)CCN(Cc1ccc(OC)cc1)c1ncccn1 [Thonzonium bromide] | 67.7 |  |
| Nc1ncnc2c1ncn2[C@@H]1O[C@H](CO)[C@@H](OP(=O)(O)O)[C@H]1O [3'-Adenylic acid] |  | 81 |

Continuation:

| Compound | HMGB1-induced TNF-alpha production (compound concentration: 3 uM) [%] | HMGB1-induced TNF-alpha production [1] [%] |
| --- | --- | --- |
| CN(CCOc1ccc(NS(C)(=O)=O)cc1)CCc1ccc(NS(C)(=O)=O)cc1 [Dofetilide] | 86.3 |  |
| CN(CCOc1ccc(NS(C)(=O)=O)cc1)CCc1ccc(NS(C)(=O)=O)cc1 | 111 |  |
| CC(=O)N1CCN(c2ccc(OCC3COC(Cn4ccnc4)(c4ccc(Cl)cc4Cl)O3)cc2)CC1 (stereo not given) [Ketoconazole] | 82.7 ± 32 |  |
| CC(=O)N1CCN(c2ccc(OCC3COC(Cn4ccnc4)(c4ccc(Cl)cc4Cl)O3)cc2)CC1 (stereo not given) | 99.5 ± 14 |  |
| CCOC(=O)Nc1ccc2c(c1)N(C(=O)CCN1CCOCC1)c1ccccc1S2 [Moricizine hydrochloride] | 89.8 |  |
| O=c1c(-c2ccc(O)cc2)coc2cc(O)cc(O)c12 [Genistein] | 83.5 |  |
| O=c1cc(-c2cccc(O)c2O)oc2ccccc12 |  | 42.3 |
| N[C@H](Cc1ccccc1)C(=O)O | 76.3 |  |
| Nc1c2c(nc3c1CCC3)CCCC2 | 105 |  |
| COc1cc(OC)c(C(=O)/C=C/c2ccc(OC)c(OC)c2)c(OC)c1 [3,4,2',4',6'-Pentamethoxychalcone] |  | 73.1 |
| CCCc1nc(C)c2c(O)nc(-c3cc(S(=O)(=O)N4CCN(CC)CC4)ccc3OCC)nn12 | 73.9 |  |
| CN(C)CCCSc1ccccc1NC(=O)/C=C/c1ccccc1 [Cinanserin] | 95.3 ± 19 |  |
| COC(=O)[C@H]1[C@H]2C[C@@H]3c4[nH]c5cc(OC)ccc5c4CCN3C[C@H]2C[C@@H](OC(=O)c2cc(OC)c(OC)c(OC)c2)[C@@H]1OC [Reserpine] | 105 ± 1.7 | 71.4 |
| COC(=O)[C@H]1[C@H]2C[C@@H]3c4[nH]c5cc(OC)ccc5c4CCN3C[C@H]2C[C@@H](OC(=O)c2cc(OC)c(OC)c(OC)c2)[C@@H]1OC | 91.2 |  |
| CC(C)C[C@H](NC(=O)[C@@H](O)[C@H](N)Cc1ccccc1)C(=O)O | 97.5 |  |
| CC(C)C[C@H](NC(=O)[C@@H](O)[C@H](N)Cc1ccccc1)C(=O)O [Bestatin hydrochloride] | 77.5 |  |
| CNC(=C[N+](=O)[O-])NCCSCc1ccc(CN(C)C)o1 | 102 |  |
| CNC(=C[N+](=O)[O-])NCCSCc1ccc(CN(C)C)o1 [Ranitidine hydrochloride] | 90.6 ± 21 |  |
| CNC(=C[N+](=O)[O-])NCCSCc1ccc(CN(C)C)o1 [Ranitidine] | 97.5 |  |
| C=CCc1ccc(O)c(-c2ccc(O)c(CC=C)c2)c1 | 85.4 |  |
| O=C(O)CN(CCOCCOCCN(CC(=O)O)CC(=O)O)CC(=O)O | 75.9 |  |
| CC(C)(CO)[C@@H](O)C(=O)NCCCO | 73 |  |
| CC(C)(CO)[C@@H](O)C(=O)NCCCO (racemic) [D-Panthenol; dl-form as vitamin] |  | 81.5 |
| O=C(O[C@@H]1Cc2c(O)cc(O)cc2O[C@@H]1c1cc(O)c(O)c(O)c1)c1cc(O)c(O)c(O)c1 [Epigallocatechin gallate] | 107 |  |
